Source: article PMC8654288, “Structural basis of DegP protease temperature-dependent activation” (Science Advances, 2021)
Results are given in words; binding and its absence hold for the method and conditions named. Some binding calls cover weakened binding; strength is not graded here. Each block holds one binder with its values, some of them ahead of it.

Molecular target: T1, DegP PDZ1-PDZ2 domain construct (DegP^261-448) (E. coli K12) (UniProt P0C0V0)
T1 sequence: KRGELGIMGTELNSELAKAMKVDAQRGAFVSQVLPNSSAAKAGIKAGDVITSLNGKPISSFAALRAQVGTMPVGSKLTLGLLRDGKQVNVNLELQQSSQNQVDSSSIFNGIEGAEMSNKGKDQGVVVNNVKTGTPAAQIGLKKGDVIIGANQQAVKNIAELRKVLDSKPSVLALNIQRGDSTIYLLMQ
Test: NMR titration; substrates (p23, β-casein, nonactivating reporter peptide) added to the DegP PDZ domains (fig. S12); β-casein up to half equimolar ratio; both purified

binding: binds
B1: β-casein (protein, UniProt P02666 16-224)
chain: RELEELNVPGEIVESLSSSEESITRINKKIEKFQSEEQQQTEDELQDKIHPFAQTQSLVYPFPGPIPNSLPQNIPPLTQTPVVVPPFLQPEVMGVSKVKEAMAPKHKEMPFPKYPVEPFTESQSLTLTDVENLHLPLPLLQSWMHQPHQPLPPTVMFPPQSVLSLSQSKVLPVPQKAVPYPQRDMPIQAFLLYQEPVLGPVRGPFPIIV

binding: no binding
B2: fluorescent nonactivating reporter peptide (Abz-…^NO2D) (peptide)
peptide: KASPVSLGYD
modifications: Abz at the N-terminus; Y^NO2 at position 9
